A negative result means that nothing was seen under these conditions. At least one verdict was read from the data and is not stated in words by the source. For part of these data: Construct, isoform or probe ends are uncertain for at least one entry.
Tests used:
Test in all cases: sandwich FLISA (antibody capture, aptamer nanoparticle probe)
prostate antigen (PSA) = prostate antigen (PSA) (UniProt P07288); conditions: 25 ng/mL, signal equal to blank, plate carries anti-CEA antibody, so aptamer not tested alone; 5'-NH2; coupled by glutaraldehyde to CP/ZIF-8/PDA nanoparticles; CEA capture 37 C 1 h, aptamer probe room temperature 1 h; washes in PBS 10 mM pH 7.4; probe blocked with 1% BSA; read-out with 4 mM OPD in 10 mM HAc-NaAc pH 5.5, 3 h; commercial protein; single-stranded DNA
alpha-fetoprotein (AFP) = alpha-fetoprotein (AFP) (UniProt P02771); conditions: 25 ng/mL, signal equal to blank, plate carries anti-CEA antibody, so aptamer not tested alone; 5'-NH2; coupled by glutaraldehyde to CP/ZIF-8/PDA nanoparticles; CEA capture 37 C 1 h, aptamer probe room temperature 1 h; washes in PBS 10 mM pH 7.4; probe blocked with 1% BSA; read-out with 4 mM OPD in 10 mM HAc-NaAc pH 5.5, 3 h; commercial protein; single-stranded DNA
glycoantigen 125 (CA125) = glycoantigen 125 (CA125) (UniProt Q8WXI7); conditions: 25 IU/mL, signal equal to blank, plate carries anti-CEA antibody, so aptamer not tested alone; 5'-NH2; coupled by glutaraldehyde to CP/ZIF-8/PDA nanoparticles; CEA capture 37 C 1 h, aptamer probe room temperature 1 h; washes in PBS 10 mM pH 7.4; probe blocked with 1% BSA; read-out with 4 mM OPD in 10 mM HAc-NaAc pH 5.5, 3 h; commercial protein; single-stranded DNA

Amino acid sequences for entries named in this document (tags omitted). Residues count along the entry.
UniProt P07288, 25-261: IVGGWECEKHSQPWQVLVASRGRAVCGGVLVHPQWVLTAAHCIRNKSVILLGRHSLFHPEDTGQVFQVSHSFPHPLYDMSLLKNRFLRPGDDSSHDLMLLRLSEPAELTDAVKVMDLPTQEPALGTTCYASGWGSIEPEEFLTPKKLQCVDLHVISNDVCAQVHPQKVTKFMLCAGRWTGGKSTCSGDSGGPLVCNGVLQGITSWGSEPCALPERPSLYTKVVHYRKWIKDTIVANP
UniProt P02771, 19-609: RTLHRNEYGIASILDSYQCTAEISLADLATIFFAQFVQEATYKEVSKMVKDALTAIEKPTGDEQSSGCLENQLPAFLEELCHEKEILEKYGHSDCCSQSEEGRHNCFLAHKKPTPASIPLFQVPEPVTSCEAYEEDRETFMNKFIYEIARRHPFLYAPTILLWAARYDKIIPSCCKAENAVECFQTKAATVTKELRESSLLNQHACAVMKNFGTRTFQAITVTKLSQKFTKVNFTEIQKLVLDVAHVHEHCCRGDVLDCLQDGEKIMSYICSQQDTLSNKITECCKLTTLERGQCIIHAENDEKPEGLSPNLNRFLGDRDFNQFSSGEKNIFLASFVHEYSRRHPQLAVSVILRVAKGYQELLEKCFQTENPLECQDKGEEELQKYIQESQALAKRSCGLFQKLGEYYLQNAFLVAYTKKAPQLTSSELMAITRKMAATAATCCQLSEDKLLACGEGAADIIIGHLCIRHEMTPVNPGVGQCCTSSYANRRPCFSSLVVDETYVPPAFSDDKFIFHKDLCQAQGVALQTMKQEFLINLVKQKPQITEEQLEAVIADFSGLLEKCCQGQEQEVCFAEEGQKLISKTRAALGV

Measured: binding result

TTTTATACCAGCTTATTCAATT [CEA aptamer]
no binding: prostate antigen (PSA) | alpha-fetoprotein (AFP) | glycoantigen 125 (CA125)
